# Assay results as given in PubChem BioAssay AID1347076 (National Center for Advancing Translational Sciences (NCATS), 2019).
# Out of some 400,000 compounds screened, about 13,000 (3.2%) were called active. Inconclusive results, whose numbers are uncertain, are shown with a selection of clear calls. Calls follow the shape of the dose curve; as a rule, active = well fitted cell-killing curve with a large enough effect; inconclusive = small, poorly fitted or top-dose-only effect, or effect the other way; inactive = flat fitted curve, though single readings scatter. Potencies beside an inconclusive call are fits to weak or partial responses and may not hold up.
# Assay: qHTS assay for MDR1-selective chemotherapeutics: Primary screen using the drug-selected MDR subline cells KB-V1; also: nearly all actives have a fitted effect of over 60% in size
# Conditions: KB-V1 MDR cells viability, CellTiter-Glo, 72 h; activity change, negative = cytotoxicity: at 46.1 µM (top of the series)
# Summary of the method: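 KB-V1 cells (P-gp-expressing MDR subline of KB-3-1) in phenol-red-free DMEM with 10% FBS were exposed to library compounds over a concentration series for 72 h at 37 degrees C. Viability read by CellTiter-Glo luminescence; concentration-effect curves fitted after normalization.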
# % is scaled to controls: 0 for no effect and ±100 for the full control effect; potency is read from the fitted curve at half-maximal effect.
SMILES,"activity change, negative = cytotoxicity",Potency
CCN(CC(=O)Nc1ccc(NC(C)=O)cc1)C(=O)C1CC(=O)N(c2ccc3c(c2)OCCO3)C1 (stereo not given),inactive: 24.5%,–
Cc1c2cnn(-c3ccccc3)c(=O)c2c(C)n1C(C)C(=O)Nc1ccc(Br)cc1F (stereo not given),–,"inconclusive: 20.6 µM [rising, partial curve]"
CC(=O)CSc1ccc(-c2nc3ccccc3[nH]2)cn1,–,active: 9.2 µM
CN(C(=O)CN1C(=O)S/C(=C\c2ccc(F)cc2)C1=O)C1CCS(=O)(=O)C1 (stereo not given),–,"inconclusive: 5.8 µM [rising, full curve]"
Cc1ccc(SCCNC(=O)c2ccc(C)c([N+](=O)[O-])c2)cc1,–,active: 23.1 µM
Cc1ccc(S(=O)(=O)CCC(=O)OCC(=O)NC(C)c2ccc(F)cc2)cc1 (stereo not given),–,"inconclusive: 9.2 µM [rising, partial curve, poor fit]"
N#C/C(=C\c1ccc(-c2ccc([N+](=O)[O-])cc2)o1)C(=O)Nc1nc(-c2cccs2)cs1,–,"inconclusive: 7.31 µM [cytotoxic, partial curve, poor fit]"
C/C(=N\NC(=S)NC(C)C)c1ccc(-n2ccnc2)cc1,–,"inconclusive: 18.4 µM [cytotoxic, single point]"
CCCN(CC(=O)Nc1ccc(F)c(F)c1F)Cc1cc(=O)n2ccsc2n1,–,"inconclusive: 3.26 µM [cytotoxic, partial curve]"
CCOC(=O)N1CCN(C(=O)c2cccn3c(=O)c4cc(Cl)ccc4nc23)CC1,–,"inconclusive: 4.61 µM [cytotoxic, partial curve]"
O=C(O)C(F)(F)S(=O)(=O)O,inactive: 3.49%,–
CCN(CCC(=O)O)c1ccc(/C=C/c2ccnc3ccccc23)cc1,inactive: 4.95%,–
O=[N+]([O-])c1nn(-c2ccc(Cl)cc2)n(O)c1=NCc1ccncc1,inactive: 8.58%,–
Cc1cc2nn(-c3cccc4ccccc34)nc2cc1NC(=O)c1cccs1,–,active: 16.4 µM
O=C(OC1CCCCC1)c1cc2ccccc2oc1=O,–,"inconclusive: 11.6 µM [rising, partial curve, poor fit]"
CCN(CC(=O)Nc1ccc2c(c1)OCCO2)C(=O)C1CC(=O)N(c2ccc(OC)cc2OC)C1 (stereo not given),–,"inconclusive: 20.6 µM [rising, partial curve, poor fit]"
COc1cc(S(=O)(=O)N2CCC(c3nc4ccccc4s3)CC2)ccc1S(=O)(=O)NC1CCCC1,–,"inconclusive: 2.31 µM [cytotoxic, full curve]"
O=C(Nc1nnc(-c2cccnc2)o1)c1cccc(Cl)c1,–,"inconclusive: 4.61 µM [cytotoxic, full curve]"
COc1cc(-c2nnc(SCC(=O)c3ccccc3)o2)cc(OC)c1OC,–,"inconclusive: 9.2 µM [cytotoxic, partial curve, poor fit]"
CCOC(=O)c1cnc2c(cnn2C)c1NCCC(O)C(F)(F)F (stereo not given),–,active: 6.51 µM
COc1ccc(Cc2c(-c3cccc(Br)c3)nc3ccc(Cl)cn23)c(C)c1,inactive: 14.5%,–
O=C(Nc1ccccc1-c1ccccc1)c1ccccc1[N+](=O)[O-],–,"inconclusive: 20.6 µM [cytotoxic, single point]"
CCc1noc(C)c1C(=O)N(CC)c1nc2c(C)cccc2s1,inactive: -4.32%,–

# Three entries from above, arranged by heavy-atom count, high to low.
SMILES,"activity change, negative = cytotoxicity",Potency
COc1ccc(Cc2c(-c3cccc(Br)c3)nc3ccc(Cl)cn23)c(C)c1,inactive: 14.5%,–
CCN(CCC(=O)O)c1ccc(/C=C/c2ccnc3ccccc23)cc1,inactive: 4.95%,–
O=C(Nc1nnc(-c2cccnc2)o1)c1cccc(Cl)c1,–,"inconclusive: 4.61 µM [cytotoxic, full curve]"

# Continuation.

SMILES,"activity change, negative = cytotoxicity",Potency
CCOC(=O)C(C(C)=O)c1c(Br)c(O)c(O)c2c(C(=O)c3ccc(C)cc3)coc12 (stereo not given),–,active: 20.6 µM
CCc1cccc(N2C(=O)CS(=O)(=O)C23C(=O)N(Cc2ccc(F)cc2)c2ccc(C)cc23)c1 (stereo not given),inactive: -6.34%,–
CCc1nc2ccc(C(=O)Nc3ccc4c(c3)OCC(=O)N4)cn2c1N(CC)CCOC,inactive: -11.2%,–
CC(C)c1ccccc1-n1c(SCC(=O)c2ccc3c(c2)NC(=O)CO3)nc2ccccc2c1=O,–,"inconclusive: 20.6 µM [cytotoxic, partial curve, poor fit]"
O=C(NCCCNc1ccc([N+](=O)[O-])cc1Cl)c1ccccc1F,–,"inconclusive: 20.6 µM [cytotoxic, partial curve]"
Cc1ccc(CN2CCN(/N=C/c3ccc(C(=O)O)cc3)CC2)cc1,–,"inconclusive: 20.6 µM [cytotoxic, partial curve, poor fit]"
CNC(=S)Nc1ccc(C(N)=O)cc1,–,"inconclusive: 29.1 µM [rising, single point]"
COc1ccc(N2Cc3cccc(C(=O)Nc4ccc(C)c(C)c4)c3C2=O)cc1,inactive: 24.3%,–
Cc1onc(-c2ccccc2)c1-c1nnc(COC(=O)c2ccc(N(C)C)cc2)o1,–,"inconclusive: 23.1 µM [cytotoxic, single point]"
Cc1nc(-c2cccnc2)sc1C(=O)Nc1cccc(C(F)(F)F)c1,–,active: 16.4 µM
Cc1cc(C)c2c(N)c(C(=O)Nc3ncc(C)s3)sc2n1,–,"inconclusive: 23.1 µM [cytotoxic, single point]"
N#Cc1ccc(C(=O)Nc2nnc(-c3cccs3)o2)cc1,inactive: 0%,–
COc1cccc(-n2nnc3c(=O)n(CC(=O)N4CCC(Cc5ccccc5)CC4)cnc32)c1,–,active: 5.17 µM
Cc1cccc(C(=O)OCC(=O)NC(=O)NC2CCCCC2)c1,–,"inconclusive: 20.6 µM [rising, single point]"
CC(C)(C)c1ccc(C(=O)Nn2cnnc2)cc1,inconclusive: -5.67%,–
Cc1c(C(=O)NCc2ccccc2C(F)(F)F)sc(=O)n1Cc1ccc(F)cc1,–,"inconclusive: 10.3 µM [cytotoxic, partial curve]"
CCc1cc(=O)oc2c(C)c(OCC(=O)NCCN3CCOCC3)ccc12,–,"inconclusive: 16.4 µM [cytotoxic, single point]"
O=C(NCC1OCCc2ccccc21)c1cc(COc2ccc(F)cc2Cl)on1 (stereo not given),inactive: 6.25%,–
Cc1ccccc1OCC(=O)N1N=C(c2cccnc2)CC1(O)C(F)(F)F (stereo not given),–,active: 20.6 µM
CC1CCC(NC(=O)C2c3ccccc3C(=O)N2Cc2ccc3c(c2)OCO3)CC1 (stereo not given),–,"inconclusive: 4.11 µM [cytotoxic, partial curve]"
O=C(COC(=O)C1CCN(c2ccc(C(F)(F)F)cn2)CC1)c1cccc(Br)c1,–,"inconclusive: 23.1 µM [rising, single point]"
Cc1ccc(CN2C(=O)C(C)(C)Oc3ccc(C(=O)N4CCCCC4)cc32)cc1,–,"inconclusive: 20.6 µM [cytotoxic, partial curve]"
